Assay results: paper PMC8479045
Positions count from the first letter of the chain named. Names may count otherwise. No constants are given. Whether binding was seen depends on the method and setting. For some assays here: Binding seen in cells or lysates may run through a third protein. Some binding calls cover weakened binding; strength is not graded here. For some assays here: Tags and fused reporters may be left off the sequences shown. Each block holds one binder with its values, some of them ahead of it.

Tests used:
[1] = target: T1, TSEN15–34 heterodimer (full length) (human) (UniProt Q8WW01+Q9BSV6); assay: SEC; purified TSEN15–34 and TSEN2–54 heterodimers mixed, then size exclusion chromatography; both purified
T1 sequence 1: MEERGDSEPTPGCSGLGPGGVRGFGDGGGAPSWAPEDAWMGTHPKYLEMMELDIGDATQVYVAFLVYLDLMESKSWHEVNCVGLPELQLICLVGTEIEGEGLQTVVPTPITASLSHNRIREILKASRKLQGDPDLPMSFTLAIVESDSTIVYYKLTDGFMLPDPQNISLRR
T1 sequence 2: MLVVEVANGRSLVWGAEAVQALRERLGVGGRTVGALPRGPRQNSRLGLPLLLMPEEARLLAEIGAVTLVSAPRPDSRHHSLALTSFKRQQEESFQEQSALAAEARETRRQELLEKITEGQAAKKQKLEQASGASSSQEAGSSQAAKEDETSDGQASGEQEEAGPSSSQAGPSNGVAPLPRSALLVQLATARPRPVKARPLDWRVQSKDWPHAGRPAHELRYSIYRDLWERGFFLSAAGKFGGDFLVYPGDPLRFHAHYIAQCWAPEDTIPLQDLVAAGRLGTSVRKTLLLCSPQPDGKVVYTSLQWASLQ

[2] = target: T1, TSEN15–34 heterodimer (full length) (human); assay: native MS; purified wt TSEN (1.09 mg/ml) and wt TSEN/CLP1 (1.88 mg/ml) from insect cells, exchanged into 200 mM ammonium acetate pH 7.5; Q-ToF modified for high-mass complexes; both purified
[3] = target: T2, TSEN15 carrying the H116Y mutation, full length (pull-down of Fig. 3e) (human) (UniProt Q8WW01); assay: pull-down; full-length TSEN34 with wt TSEN15 or TSEN15 H116Y; input and co-precipitated proteins by SDS-PAGE and immunoblot; bait, host and buffer not described
T2 sequence: T1 sequence 1 with H116Y

[4] = target: T3, TSEN15, wild type, full length (pull-down of Fig. 3e) (human) (UniProt Q8WW01); assay: as above
T3 sequence: T1 sequence 1

[5] = target: T4, TSEN15 co-expressed in HEK293 cells (bait of the pull-down of Fig. 4a) (human), Q8WW01; assay: pull-down; wt and mutant TSEN complexes co-expressed in HEK293 cells; pull-down via TSEN15; immunoblot; details: remark: other sources report otherwise
T4 chain: T1 sequence 1

[6] = target: T5, endogenous TSEN34 of human fibroblasts (human (endogenous in primary skin fibroblasts)) (UniProt Q9BSV6); assay: co-IP; α-TSEN34 peptide antibody cross-linked to agarose beads; total lysates of control, heterozygous and homozygous TSEN54 c.919 G>T fibroblasts, 90 min at 4 °C; washes in 20 mM Tris-HCl pH 7.5, 150 mM NaCl, 10% glycerol, 0.1% NP40, 2 mM MgCl2; immunoblot
T5 sequence: T1 sequence 2

[7] = target: T6, His6-tagged TSEN15 of the inactive tetrameric TSEN complex (human) (UniProt Q8WW01); assay: pull-down; 8 µg purified inactive His-tagged tetrameric TSEN (His6 on TSEN15) captured on protein G agarose with α-His antibody, 50 mM HEPES-NaOH pH 7.4, 400 mM then 100 mM NaCl, 4 °C; TSEN subunits by immunoblot (set-up of the tRNA pull-down); both purified
T6 sequence: T1 sequence 1

[8] = target: T7, tRNA splicing endonuclease subunit TSEN15 (human) (UniProt Q8WW01); assay: native MS; purified wt TSEN (1.09 mg/ml) and wt TSEN/CLP1 (1.88 mg/ml) from insect cells, exchanged into 200 mM ammonium acetate pH 7.5; Q-ToF modified for high-mass complexes; both purified
T7 sequence: T1 sequence 1

[9] = target: T7, tRNA splicing endonuclease subunit TSEN15 (human); assay: co-expression and co-purification; combinatorial co-expression in Sf21 cells; Ni-NTA, heparin (left out for TSEN15–34), TEV cleavage, SEC on Superdex 200 Increase in 50 mM HEPES-NaOH pH 7.4, 400 mM NaCl; SDS-PAGE of purified complexes

- binding [5]: binds
B3: TSEN54 co-expressed in HEK293 cells, Q7Z6J9 1-526 (protein)
chain: MEPEPEPAAVEVPAGRVLSARELFAARSRSQKLPQRSHGPKDFLPDGSAAQAERLRRCREELWQLLAEQRVERLGSLVAAEWRPEEGFVELKSPAGKFWQTMGFSEQGRQRLHPEEALYLLECGSIHLFHQDLPLSIQEAYQLLLTDHTVTFLQYQVFSHLKRLGYVVRRFQPSSVLSPYERQLNLDASVQHLEDGDGKRKRSSSSPRSINKKAKALDNSLQPKSLAASSPPPCSQPSQCPEEKPQESSPMKGPGGPFQLLGSLGPSPGPAREGVGCSWESGRAENGVTGAGKRRWNFEQISFPNMASDSRHTLLRAPAPELLPANVAGRETDAESWCQKLNQRKEKLSRREREHHAEAAQFQEDVNADPEVQRCSSWREYKELLQRRQVQRSQRRAPHLWGQPVTPLLSPGQASSPAVVLQHISVLQTTHLPDGGARLLEKSGGLEIIFDVYQADAVATFRKNNPGKPYARMCISGFDEPVPDLCSLKRLSYQSGDVPLIFALVDHGDISFYSFRDFTLPQDVGH

- binding [6]: binds
B4: endogenous TSEN2 of human fibroblasts (protein, UniProt Q8NCE0 1-465)
chain: MAEAVFHAPKRKRRVYETYESPLPIPFGQDHGPLKEFKIFRAEMINNNVIVRNAEDIEQLYGKGYFGKGILSRSRPSFTISDPKLVAKWKDMKTNMPIITSKRYQHSVEWAAELMRRQGQDESTVRRILKDYTKPLEHPPVKRNEEAQVHDKLNSGMVSNMEGTAGGERPSVVNGDSGKSGGVGDPREPLGCLQEGSGCHPTTESFEKSVREDASPLPHVCCCKQDALILQRGLHHEDGSQHIGLLHPGDRGPDHEYVLVEEAECAMSEREAAPNEELVQRNRLICRRNPYRIFEYLQLSLEEAFFLVYALGCLSIYYEKEPLTIVKLWKAFTVVQPTFRTTYMAYHYFRSKGWVPKVGLKYGTDLLLYRKGPPFYHASYSVIIELVDDHFEGSLRRPLSWKSLAALSRVSVNVSKELMLCYLIKPSTMTDKEMESPECMKRIKVQEVILSRWVSSRERSDQDDL

- binding [6]: binds
B5: endogenous wild-type TSEN54 of control fibroblasts (protein, UniProt Q7Z6J9 1-526)
chain: B3 chain

- binding [8]: binds
- binding [9]: binds
B8: tRNA splicing endonuclease subunit TSEN34 (protein, UniProt Q9BSV6 1-310)
chain: T1 sequence 2

More lines, now with the values behind:

B1: TSEN2–54 heterodimer (complex, UniProt Q8NCE0 1-465; Q7Z6J9 1-526)
chain 1: B4 chain
chain 2: B3 chain
modifications: high degree of phosphorylation (sites not given)
- binding [1]: binds
- binding [2]: binds

B2: TSEN34, full length (pull-down of Fig. 3e) (protein, UniProt Q9BSV6 1-310)
chain: T1 sequence 2
- binding [3]: binds
- binding [4]: binds

B6: TSEN2 H377A (subunit of inactive TSEN) (protein, UniProt Q8NCE0 1-465)
chain: B4 chain with H377A
- binding [7]: binds

B7: TSEN34 H255A (subunit of inactive TSEN) (protein, UniProt Q9BSV6 1-310)
chain: T1 sequence 2 with H255A
- binding [7]: binds
